Assay results: publication PMC6044554
No constants are given. Whether binding was seen depends on the method and setting. Binding seen in cells or lysates may run through a third protein. Tags and fused reporters may be left off the sequences shown.

Biological target: T1, Lmo2027-GST fusion protein (residues 31-367) (Listeria monocytogenes) (UniProt Q8Y5N0)
T1 sequence: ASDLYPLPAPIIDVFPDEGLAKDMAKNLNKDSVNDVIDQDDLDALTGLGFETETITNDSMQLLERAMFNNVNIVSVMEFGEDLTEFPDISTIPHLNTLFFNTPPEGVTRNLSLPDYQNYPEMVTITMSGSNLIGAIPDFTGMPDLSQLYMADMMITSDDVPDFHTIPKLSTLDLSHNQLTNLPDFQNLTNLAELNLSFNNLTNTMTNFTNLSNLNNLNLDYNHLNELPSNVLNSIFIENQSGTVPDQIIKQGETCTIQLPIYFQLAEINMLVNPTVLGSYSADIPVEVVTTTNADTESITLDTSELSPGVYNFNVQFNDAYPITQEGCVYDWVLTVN
Experiment: pull-down; GST or GST fusion bait on Glutathione Sepharose 4B incubated overnight with MDCK cell lysate; beads boiled in SDS sample buffer; Western blot with anti-afadin antibody; only the target purified

afadin (MDCK cells) (canine (endogenous in MDCK))
binding: no binding
